# Assay results reported in patent US8299048B2, “Hexahydrocyclopentyl[f]indazole sulfonamides and derivatives thereof as selective glucocorticoid receptor modulators” (Merck Sharp & Dohme Corp., priority 2008, dated 2012).
# Some entries share one result that the patent states for a list of compounds.
# Target: T1, glucocorticoid receptor (Homo sapiens, UniProt P04150)
# T1 construct: endogenous in cells
# T1 sequence (P04150 1-777): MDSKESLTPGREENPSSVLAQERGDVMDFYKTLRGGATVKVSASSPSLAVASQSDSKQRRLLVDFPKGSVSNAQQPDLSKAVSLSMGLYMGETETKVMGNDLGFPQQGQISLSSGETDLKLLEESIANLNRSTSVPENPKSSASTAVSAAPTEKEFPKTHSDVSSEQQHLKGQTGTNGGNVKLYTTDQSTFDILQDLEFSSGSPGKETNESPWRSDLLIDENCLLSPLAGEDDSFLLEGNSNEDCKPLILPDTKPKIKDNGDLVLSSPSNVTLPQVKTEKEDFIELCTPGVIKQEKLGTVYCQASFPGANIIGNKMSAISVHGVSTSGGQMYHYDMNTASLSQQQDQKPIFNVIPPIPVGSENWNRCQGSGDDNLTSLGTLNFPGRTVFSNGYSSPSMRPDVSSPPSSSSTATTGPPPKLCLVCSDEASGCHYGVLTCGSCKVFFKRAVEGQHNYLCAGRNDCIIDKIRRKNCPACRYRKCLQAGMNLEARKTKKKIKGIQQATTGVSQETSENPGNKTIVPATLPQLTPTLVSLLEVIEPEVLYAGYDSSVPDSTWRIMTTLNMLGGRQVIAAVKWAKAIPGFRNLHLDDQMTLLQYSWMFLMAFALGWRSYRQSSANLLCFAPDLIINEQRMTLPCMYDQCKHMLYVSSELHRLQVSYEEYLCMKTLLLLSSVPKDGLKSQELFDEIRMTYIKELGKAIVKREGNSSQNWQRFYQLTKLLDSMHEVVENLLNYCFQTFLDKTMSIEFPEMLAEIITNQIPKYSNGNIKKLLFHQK
# Test: Ligand binding assay (GR BIND)
# Settings: displacement of 3H-DEX, MDA-MB-453 cell lysate, DEX as reference
# Method: • Materials: • Binding Buffer: TEGM (10 mM Tris-HCl, 1 mM EDTA, 10% glycerol, 1 mM beta-mecaptoethanol, 10 mM Sodium Molybdate, pH 7.2) • 50% HAP Slurry: Calbiochem Hydroxylapatite, Fast Flow, in 10 mM Tris, pH 8.0 and 1 mM EDTA. • Wash Buffer: 40 mM Tris, pH7.5, 100 mM KCl, 1 mM EDTA and 1 mM EGTA.
# Phenol red-free Trypsin-EDTA is diluted in the same PBS1:10. The cell layers are rinsed with 1× Trypsin, extra Trypsin is poured out, and the cell layers are incubated at 37° C. for ˜2 min. The flask is tapped and checked for signs of cell detachment. Once the cells begin to slide off the flask, the complete media is added. The cells are counted at this point, then diluted to the appropriate concentration and split into flasks or dishes for further culturing (Usually 1:3 to 1:6 dilution).
# When the cells are 70 to 85% confluent, they are detached as described above, and collected by centrifuging at 1000 g for 10 minutes at 4° C. The cell pellet is washed twice with TEGM (10 mM Tris-HCl, 1 mM EDTA, 10% glycerol, 1 mM beta-mercaptoethanol, 10 mM Sodium Molybdate, pH 7.2). After the final wash, the cells are resuspended in TEGM at a concentration of 10^7 cells/mL. The cell suspension is snap frozen in liquid nitrogen or ethanol/dry ice bath and transferred to −80° C. freezer on dry ice. Before setting up the binding assay, the frozen samples are left on ice-water to just thaw (˜1 hr). Then the samples are centrifuged at 12,500 g to 20,000 g for 30 min at 4° C. The supernatant is used to set-up assay right away. If using 50 μL of supernatant, the test compound can be prepared in 50 μL of the TEGM buffer.
# 1×TEGM buffer is prepared, and the isotope-containing assay mixture is prepared in the following order: EtOH (2% final concentration in reaction), 3H-DEX (Amersham Biosciences) and 1×TEGM. [e.g. For 100 samples, 200 μL (100×2) of EtOH+4.25 μL of 1:10 ^3H—Dex stock+2300 μL (100×23) 1×TEGM]. The compound is serially diluted, e.g., if starting final conc. is 1 μM, and the compound is in 25 μL of solution, for duplicate samples, 75 μL of 4×1 μM solution is made and 3 μL of 100 μM is added to 72 μL of buffer, and 1:5 serial dilution.
# 25 μL of ^3H-DEX (6 nM) trace and 25 μL compound solution are first mixed together, followed by addition of 50 μL receptor solution. The reaction is gently mixed, spun briefly at about 200 rpm and incubated at 4° C. overnight. 100 μL of 50% HAP slurry is prepared and added to the incubated reaction which is then vortexed and incubated on ice for 5 to 10 minutes. The reaction mixture is vortexed twice more to resuspend HAP while incubating reaction. The samples in 96-well format are then washed in wash buffer using The FilterMate™ Universal Harvester plate washer (Packard). The washing process transfers HAP pellet containing ligand-bound expressed receptor to Unifilter-96 GF/B filter plate (Packard). The HAP pellet on the filter plate is incubated with 50 μL of MICROSCINT (Packard) scintillint for 30 minutes before being counted on the TopCount microscintillation counter (Packard). […] are calculated using DEX as a reference.
row,Structure (SMILES),IC50 [nM]
1,"C[C@]12Cc3cnn(-c4ccc(F)cc4)c3C=C1CC[C@@H]2CN(CC#N)S(=O)(=O)c1cccc(Cl)c1Cl [Example 26, 2,3-dichloro-N-(cyanomethyl)-N-{[(4αR,5S)-1-(4-fluorophenyl)-4α-methyl-1,4,4α,5,6,7-hexahydrocyclopenta[f]indazol-5-yl]methyl}benzenesulfonamide]",< 1000
2,"C[C@]12Cc3cnn(-c4ccc(F)cc4)c3C=C1CC[C@@H]2CN(CC#N)S(=O)(=O)c1ccc(Cl)c(C(F)(F)F)c1 [Example 27, 4-chloro-N-(cyanomethyl)-N-{[(4αR,5S)-1-(4-fluorophenyl)-4α-methyl-1,4,4α,5,6,7-hexahydrocyclopenta[f]indazol-5-yl]methyl}-3-(trifluoromethyl)benzenesulfonamide]",< 1000
3,"C[C@]12Cc3cnn(-c4ccc(F)cc4)c3C=C1CC[C@@H]2CN(CC#N)S(=O)(=O)c1ccc(C#N)cc1 [Example 28, 4-cyano-N-(cyanomethyl)-N-{[(4αR,5S)-1-(4-fluorophenyl)-4α-methyl-1,4,4α,5,6,7-hexahydrocyclopenta[f]indazol-5-yl]methyl}benzenesulfonamide]",< 1000
4,"Cc1cc(S(=O)(=O)N(CC#N)C[C@H]2CCC3=Cc4c(cnn4-c4ccc(F)cc4)C[C@@]32C)c(C)cc1Cl [Example 29, 4-chloro-N-(cyanomethyl)-N-{[(4αR,5S)-1-(4-fluorophenyl)-4α-methyl-1,4,4α,5,6,7-hexahydrocyclopenta[f]indazol-5-yl]methyl}-2,5-dimethylbenzenesulfonamide]",< 1000
5,"C[C@]12Cc3cnn(-c4ccc(F)cc4)c3C=C1CC[C@@H]2CN(CC#N)S(=O)(=O)Cc1cccc(C(F)(F)F)c1 [Example 30, N-(cyanomethyl)-N-{[(4αR,5S)-1-(4-fluorophenyl}-4α-methyl-1,4,4α,5,6,7-hexahydrocyclopenta[f]indazol-5-yl]methyl}-1-[3-(trifluoromethyl)phenyl]methanesulfonamide]",< 1000
6,"Cc1ccc(S(=O)(=O)N(CC#N)C[C@H]2CCC3=Cc4c(cnn4-c4ccc(F)cc4)C[C@@]32C)s1 [Example 31, N-(cyanomethyl)-N-{[(4αR,5S)-1-(4-fluorophenyl}-4α-methyl-1,4,4α,5,6,7-hexahydrocyclopenta[f]indazol-5-yl]methyl}-5-methylthiophene-2-sulfonamide]",< 1000
7,"Cn1cc(S(=O)(=O)N(CC#N)C[C@H]2CCC3=Cc4c(cnn4-c4ccc(F)cc4)C[C@@]32C)c(C(F)(F)F)n1 [Example 32, N-(cyanomethyl)-N-{[(4αR,5S)-1-(4-fluorophenyl}-4α-methyl-1,4,4α,5,6,7-hexahydrocyclopenta[f]indazol-5-yl]methyl}-1-methyl-3-(trifluoromethyl)-1H-pyrazole-4-sulfonamide]",< 1000
8,"Cc1cc(S(=O)(=O)N(CC#N)C[C@H]2CCC3=Cc4c(cnn4-c4ccc(F)cc4)C[C@@]32C)c(C)o1 [Example 33, (4αR,5S)-5-({(cyanomethyl)[(2,5-dimethyl-3-furyl)sulfonyl]amino}methyl)-1-(4-fluorophenyl)-4α-methyl-1,4,4α,5,6,7-hexahydrocyclopenta[f]indazol-2-ium]",< 1000
9,"COC(=O)c1sccc1S(=O)(=O)N(CC#N)C[C@H]1CCC2=Cc3c(cnn3-c3ccc(F)cc3)C[C@@]21C [Example 34, methyl 3-[((cyanomethyl){[(4αR,5S)-1-(4-fluorophenyl)-4α-methyl-1,4,4α,5,6,7-hexahydrocyclopenta[f]indazol-5-yl]methyl}amino)sulfonyl]thiophene-2-carboxylate]",< 1000
10,Cn1nc(C(F)(F)F)cc1-c1ccc(S(=O)(=O)N(CC#N)C[C@H]2CCC3=Cc4c(cnn4-c4ccc(F)cc4)C[C@@]32C)s1 [Example 35],< 1000
11,"C[C@]12Cc3cnn(-c4ccc(F)cc4)c3C=C1CC[C@@H]2CN(CC#N)S(=O)(=O)c1cccc(C#N)c1 [Example 36, 3-cyano-N-(cyanomethyl)-N-{[(4αR,5S)-1-(4-fluorophenyl)-4α-methyl-1,4,4α,5,6,7-hexahydrocyclopenta[f]indazol-5-yl]methyl}benzenesulfonamide]",< 1000
12,"Cn1cnc(S(=O)(=O)N(CC#N)C[C@H]2CCC3=Cc4c(cnn4-c4ccc(F)cc4)C[C@@]32C)c1 [Example 37, N-(cyanomethyl)-N-{[(4αR,5S)-1-(4-fluorophenyl}-4α-methyl-1,4,4α,5,6,7-hexahydrocyclopenta[f]indazol-5-yl]methyl}-1-methyl-1H-imidazole-4-sulfonamide]",< 1000
13,"C[C@]12Cc3cnn(-c4ccc(F)cc4)c3C=C1CC[C@@H]2CN(CC#N)S(=O)(=O)c1ccc(Oc2cccc(Cl)c2C#N)cc1 [Example 38, 4-(3-chloro-2-cyanophenoxy)-N-(cyanomethyl)-N-{[(4αR,5S)-1-(4-fluorophenyl)-4α-methyl-1,4,4α,5,6,7-hexahydrocyclopenta[f]indazol-5-yl]methyl}benzenesulfonamide]",< 1000
14,"CN1CCOc2cc(S(=O)(=O)N(CC#N)C[C@H]3CCC4=Cc5c(cnn5-c5ccc(F)cc5)C[C@@]43C)ccc21 [Example 39, N-(cyanomethyl)-N-{[(4αR,5S)-1-(4-fluorophenyl)-4α-methyl-1,4,4α,5,6,7-hexahydrocyclopenta[f]indazol-5-yl]methyl}-4-methyl-3,4-dihydro-2H-1,4-benzoxazine-7-sulfonamide]",< 1000
15,"C[C@]12Cc3cnn(-c4ccc(F)cc4)c3C=C1CC[C@@H]2CN(CC#N)S(=O)(=O)c1cccc2ccccc12 [Example 40, N-(cyanomethyl)-N-{[(4αR,5S)-1-(4-fluorophenyl)-4α-methyl-1,4,4α,5,6,7-hexahydrocyclopenta[f]indazol-5-yl]methyl}naphthalene-1-sulfonamide]",< 1000
16,"C[C@]12Cc3cnn(-c4ccc(F)cc4)c3C=C1CC[C@@H]2CN(CC#N)S(=O)(=O)c1cc(OCC(F)(F)F)ccc1OCC(F)(F)F [Example 41, N-(cyanomethyl)-N-{[(4αR,5S)-1-(4-fluorophenyl)-4α-methyl-1,4,4α,5,6,7-hexahydrocyclopenta[f]indazol-5-yl]methyl}-2,5-bis(2,2,2-trifluoroethoxy)benzenesulfonamide]",< 1000
17,"C[C@]12Cc3cnn(-c4ccc(F)cc4)c3C=C1CC[C@@H]2CN(CC#N)S(=O)(=O)c1ccc(-c2ccccc2)cc1 [Example 42, N-(cyanomethyl)-N-{[(4αR,5S)-1-(4-fluorophenyl)-4α-methyl-1,4,4α,5,6,7-hexahydrocyclopenta[f]indazol-5-yl]methyl}biphenyl-4-sulfonamide]",< 1000
